Assay results: US5302526A, “Recombinant DNA enclosed amphiphilic leader sequences for the production and purification of fusion proteins” (Creative BioMolecules, Inc., priority 1993, dated 1994)
At least one peptide structure holds a part that was inferred or is arguable (an end, a ring closure or a residue). Ends that are not written are not given here.

Key:
[1] = 90 degree light scattering of synthetic peptide solutions to follow self-aggregation with changes in pH and ionic strength; type: physicochemical
[2] = HPLC partitioning of synthetic helix dimers between aqueous mobile phase and nonpolar C-18 stationary phase as a function of pH; type: physicochemical; details: C-18 HPLC, 13% acetonitrile
Description: To determine whether the properties of the synthetic helices corresponded to their expected properties, each was tested on an HPLC column using a nonpolar (C-18) stationary phase. A sample of synthetic peptide solution was then injected, and the elution time (time to emerge from the bottom of the column) measured. The void time for the column was measured by injecting a small charged molecule such as citrate or acetate. The fraction of the sample solubilized in the aqueous, mobile phase (versus that bound to the hydrophobic, immobile phase) is determined by the void time divided by the sample elution time. A sample emerging in the void time is completely soluble in the mobile phase, whereas if it emerges in two void times it is half solubilized in the mobile phase and half bound to the stationary phase. By this procedure the affinity of each of the synthetic peptides for the aqueous, mobile phase, relative to the hydrophobic, stationary phase, could be measured as a function of pH. The HPLC column was run isocratically (constant eluent) using one of several different buffer systems. […] For that reason a value of 13% was used for all the buffer systems in that at that concentration the elution time for the peptides was determined to be on the order of 2 to 20 times the void time. […] The column was allowed to equilibrate as judged by 214 nm absorbance baseline stability. […]

[3] = step A Sample, pH 7.0, ionic strength 0 mM, 300 nm, relative to solvent
[4] = step B HAc added, pH 3.0, ionic strength 1 mM
[5] = step C NH4 OH added, pH 8.4, ionic strength 45 mM
[6] = step D HOAc added, pH 5.1, ionic strength 49 mM
[7] = step E NH4 OH added, pH 8.4, ionic strength 69 mM
[8] = step F HAc added, pH 5.1, ionic strength 74 mM

Row | Sequence | S, relative 90 degree scattering signal [1, 3] | S, relative 90 degree scattering signal [1, 4] | S, relative 90 degree scattering signal [1, 5] | S, relative 90 degree scattering signal [1, 6] | S, relative 90 degree scattering signal [1, 7] | S, relative 90 degree scattering signal [1, 8] | affinity for ionic media (mobile phase) ([2]; above about pH 6.5) | affinity for ionic media (mobile phase) ([2]; low pH (histidine residue charged))
1 | AHNLNEAAHNLNEA [Helix P-81, (Ala--His--Asn--Leu--Asn--Glu--Ala)2] | 0.86 | 0.60 | 0.36 | 0.84 | 0.41 | 0.16 | – | –
2 | AKQHQEAAKQHQEA [Helix P-87, (Ala--Lys--Gln--His--Gln--Glu--Ala)2] | 3.6 | 2.5 | 3.0 | 1.5 | 1.8 | 1.2 | relative low, substantially constant affinity for ionic media | high affinity for ionic media (mobile phase)
